Test results as given in publication PMC8834445.

Sequences of proteins named here, by UniProt entry; tags and fusion partners are left off. A change or cut given only in a name is not applied to a line headed by its entry.
UniProt P23258: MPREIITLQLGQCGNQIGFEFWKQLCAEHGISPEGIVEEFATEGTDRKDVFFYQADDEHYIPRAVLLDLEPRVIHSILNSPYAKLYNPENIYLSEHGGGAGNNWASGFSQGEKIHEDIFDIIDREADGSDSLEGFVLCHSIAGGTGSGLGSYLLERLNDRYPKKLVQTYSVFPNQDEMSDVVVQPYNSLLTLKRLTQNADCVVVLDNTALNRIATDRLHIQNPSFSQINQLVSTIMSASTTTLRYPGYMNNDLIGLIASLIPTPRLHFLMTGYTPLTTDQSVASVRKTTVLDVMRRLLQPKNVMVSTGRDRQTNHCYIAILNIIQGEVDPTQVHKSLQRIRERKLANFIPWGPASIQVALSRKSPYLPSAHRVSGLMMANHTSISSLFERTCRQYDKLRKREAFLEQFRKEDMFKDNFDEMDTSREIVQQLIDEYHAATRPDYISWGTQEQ
UniProt O94874: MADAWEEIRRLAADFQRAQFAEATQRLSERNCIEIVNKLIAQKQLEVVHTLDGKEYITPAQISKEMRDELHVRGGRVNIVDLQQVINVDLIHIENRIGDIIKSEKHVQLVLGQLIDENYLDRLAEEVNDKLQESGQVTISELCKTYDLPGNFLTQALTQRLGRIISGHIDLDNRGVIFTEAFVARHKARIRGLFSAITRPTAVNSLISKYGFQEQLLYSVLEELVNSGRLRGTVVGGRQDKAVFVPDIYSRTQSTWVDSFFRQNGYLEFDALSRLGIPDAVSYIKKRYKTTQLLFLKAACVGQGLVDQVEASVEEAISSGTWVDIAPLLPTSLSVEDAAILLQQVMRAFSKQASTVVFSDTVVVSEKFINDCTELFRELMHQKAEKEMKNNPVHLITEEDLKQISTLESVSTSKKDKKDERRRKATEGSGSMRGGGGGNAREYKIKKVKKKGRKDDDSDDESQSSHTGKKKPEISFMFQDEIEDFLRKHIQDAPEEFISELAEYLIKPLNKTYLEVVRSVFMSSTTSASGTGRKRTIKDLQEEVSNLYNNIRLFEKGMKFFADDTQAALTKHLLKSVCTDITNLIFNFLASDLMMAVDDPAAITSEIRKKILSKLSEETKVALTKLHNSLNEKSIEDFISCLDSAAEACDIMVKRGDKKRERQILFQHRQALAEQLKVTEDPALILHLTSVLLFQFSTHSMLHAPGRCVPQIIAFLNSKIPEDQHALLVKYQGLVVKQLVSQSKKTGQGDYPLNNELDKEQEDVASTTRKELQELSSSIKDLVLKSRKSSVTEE
UniProt P06748: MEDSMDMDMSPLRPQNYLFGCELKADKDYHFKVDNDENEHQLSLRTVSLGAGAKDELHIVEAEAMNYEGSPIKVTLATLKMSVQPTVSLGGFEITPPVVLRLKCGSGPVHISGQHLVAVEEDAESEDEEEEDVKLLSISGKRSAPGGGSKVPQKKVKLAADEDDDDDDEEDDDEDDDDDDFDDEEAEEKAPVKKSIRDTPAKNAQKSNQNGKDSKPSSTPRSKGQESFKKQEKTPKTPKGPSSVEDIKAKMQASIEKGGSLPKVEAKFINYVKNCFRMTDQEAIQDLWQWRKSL

Tests used:
[1] = target: N-terminally GST-tagged full-length human γ-tubulin-1 (human) (UniProt P23258); assay: pull-down; beads with immobilised GST-γ-tubulin or GST alone incubated with purified FLAG-tagged UFL1, C53 or nucleophosmin at 0.5 μg/mL in TBST (10 mM Tris-HCl, pH 7.4, 150 mM NaCl, 0.05% Tween 20); immunoblot; both purified
[2] = target: γ-tubulin, endogenous human (human (endogenous in U2OS and T98G)) (UniProt P23258); assay: co-IP; extracts of U2OS cells expressing EGFP-UFL1, C53-EGFP or EGFP alone; precipitated with Ab to GFP or, reciprocally, Ab to γ-tubulin; immunoblot
[3] = target: N-terminally GST-tagged full-length UFL1 (aa 1-794) (human) (UniProt O94874); assay: pull-down; immobilised GST-tagged UFL1, C53 or γ-tubulin, or GST alone, incubated with whole-cell extracts (1% NP-40 in HEPES buffer); immunoblot; only the target purified
[4] = target: N-terminally GST-tagged full-length human CDK5RAP3 (C53) (human) (UniProt Q96JB5); assay: as above
[5] = target: C-terminally EGFP-tagged human CDK5RAP3 (C53) (human) (UniProt Q96JB5); assay: co-IP; extracts of U2OS cells expressing EGFP-UFL1, C53-EGFP or EGFP alone; precipitated with Ab to GFP or, reciprocally, Ab to γ-tubulin; immunoblot
[6] = target: N-terminally EGFP-tagged human UFL1 (human) (UniProt O94874); assay: as above

Substance: C-terminally FLAG-tagged human UFL1, purified (from UniProt O94874-1 1-794)
- binding [1]: binds weakly

Substance: N-terminally EGFP-tagged human UFL1 (from UniProt O94874-1 1-794)
- binding [2]: binds

Substance: Purified C-terminally FLAG-tagged nucleophosmin (negative control) (from UniProt P06748 1-294)
- binding [1]: no binding (tested: 0.5 μg/mL)

Substance: γ-tubulin, endogenous human (from UniProt P23258)
- binding [3]: binds
- binding [4]: binds
- binding [5]: binds
- binding [6]: binds

Results are given in words; binding and its absence hold for the method and conditions named. Binding calls can cover weak binding; strength is not graded here. For some of these results: In cells and extracts the contact can be indirect. For some of these results: Where a sequence is shown, tags or fusion partners need not be part of it.
